# Test results published in article PMC10014883.
# The chains behind the UniProt entries cited, without tags or fusion partners.
# UniProt P58462: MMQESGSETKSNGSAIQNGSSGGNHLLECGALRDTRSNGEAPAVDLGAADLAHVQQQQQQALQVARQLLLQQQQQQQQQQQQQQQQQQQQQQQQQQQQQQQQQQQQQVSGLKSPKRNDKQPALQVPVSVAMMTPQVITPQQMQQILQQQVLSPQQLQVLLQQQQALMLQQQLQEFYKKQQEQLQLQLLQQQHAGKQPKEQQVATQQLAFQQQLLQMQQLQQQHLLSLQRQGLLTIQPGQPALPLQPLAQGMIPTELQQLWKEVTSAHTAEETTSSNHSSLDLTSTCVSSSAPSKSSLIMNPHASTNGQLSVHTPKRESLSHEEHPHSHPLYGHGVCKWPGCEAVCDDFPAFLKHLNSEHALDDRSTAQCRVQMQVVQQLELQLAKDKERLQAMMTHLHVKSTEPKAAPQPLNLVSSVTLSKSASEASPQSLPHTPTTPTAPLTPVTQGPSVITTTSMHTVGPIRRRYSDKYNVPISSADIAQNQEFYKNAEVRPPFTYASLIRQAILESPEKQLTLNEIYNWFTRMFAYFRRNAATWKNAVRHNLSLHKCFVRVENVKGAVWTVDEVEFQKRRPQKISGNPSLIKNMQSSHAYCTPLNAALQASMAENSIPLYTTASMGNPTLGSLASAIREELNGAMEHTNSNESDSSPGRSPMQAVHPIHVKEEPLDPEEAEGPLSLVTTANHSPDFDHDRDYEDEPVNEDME
# No constants are given. Whether binding was seen depends on the method and setting. Binding seen in cells or lysates may run through a third protein. Some binding calls cover weakened binding; strength is not graded here.
# B1: Bromodomain-containing protein 9 (BRD9) (protein, UniProt Q3UQU0 1-596)
# chain: MGKKHKKHKAEWRSSYEDYTDTPLEKPLKLVLKVGGSEVTELSGSGHDSSYYDDRSDHERERHREKKKKKKKKSEKEKHLDEEERRKRKEEKKRKREKEHCDSEGEADAFDPGKKVEVEPPPDRPVRACRTQPAENESTPIQRLLEHFLRQLQRKDPHGFFAFPVTDAIAPGYSMIIKHPMDFGTMKDKIVANEYKSVTEFKADFKLMCDNAMTYNRPDTVYYKLAKKILHAGFKMMSKAALLGSEDPAAEEPVPEVVPVQVETTKKSKKPSREVISCMFEPEGNACSLTDSTAEEHVLALVEHAADEARDRINRFLPGGKMGYLKKLGDGSLLYSVVNAPEPDADEEETHPVDLSSLSSKLLPGFTTLGFKDERRNKVTFLSSASTALSMQNNSVFGDLKSDEMELLYSAYGDETGVQCALSLQEFVKDAGSYSKKMVDDLLDQITGGDHSRMIFQLKQRRSIPMRPADEMKVGDPLGESGGPVLDFMSMKQYPDVSLDVSMLSSLGKVKKELDHEDSHLNLDETARLLQDLHEAQAERGGSRPSSNLSSLSTASEREHPPPGSPSRLSVGEQPDVAHDPYEFLQSPEPAAPAKN
# Target: FOXP1 (mouse (endogenous in BMDMs)) (UniProt P58462)
# Test: co-IP; lysates of BMDMs after osteoclast induction (Pierce IP Lysis Buffer) immunoprecipitated with anti-FOXP1 antibody or normal rabbit IgG and protein A-Sepharose; immunoblotting for FOXP1 and BRD9
binder,measurement,value
B1,binding,binds
